Laboratory results taken from PubChem BioAssay AID504834 (National Center for Advancing Translational Sciences (NCATS), 2011).
Among all 320,000 compounds or so, about 22,000 (6.9%) were called active. Inconclusive means that the source gave no clear call. Such entries were picked first, then a sample of the others. Calls follow the shape of the dose curve; as a rule, active = well fitted inhibition curve with a large enough effect; inconclusive = small, poorly fitted or top-dose-only effect, or another doubt; inactive = no such curve, though single readings can be large or run the other way. Potencies of inconclusive entries are doubtful fits and often do not repeat.

assay: Primary qHTS for delayed death inhibitors of the malarial parasite plastid, 96 hour incubation; conditions: P. falciparum luciferase reporter growth; series mostly up to 28.7 µM
Summary of the method: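 Plates of compound plus infected erythrocytes (2% hematocrit, 0.05% parasitemia final) incubate 96 hours, 37 C, 5% CO2. Detection reagent added; reduced luminescence from the parasites' luciferase reporter flags inhibition.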
% is scaled to controls: 0 for no effect and ±100 for the full control effect; potency is read from the fitted curve at half-maximal effect.

Structure (SMILES) | Potency | activity change, negative = inhibition
Cc1ccc2[nH]c3c(c2c1)CN(C(=O)CN1CCN(C(=O)c2ccco2)CC1)CC3 | inconclusive: 10.4 µM [inhibitor, single point] | –
O=C(CNc1cccc2ccccc12)N/N=C/c1ccc([N+](=O)[O-])o1 | active: 1.17 µM | –
Cc1cccc(C)c1-n1c(C)cc(/C=N/NC(=O)c2ccncc2)c1C | inconclusive: 0.522 µM [inhibitor, full curve, poor fit] | –
Cn1c(Cc2ccccc2)[n+](C)c2ccccc21 | inconclusive: 1.04 µM [inhibitor, full curve] | –
O=C(c1cn(-c2ccccc2)nc1-c1ccncc1)N1CCCCC1 | inconclusive: 0.329 µM [inhibitor, full curve, poor fit] | –
Cc1cccc(N(Cc2ccccc2)C(=O)c2cccc(S(=O)(=O)N3CC(C)OC(C)C3)c2)c1 (stereo not drawn) | inconclusive: 4.15 µM [inhibitor, partial curve] | –
Cc1cccc(-n2nc([N+](=O)[O-])c(=NCc3cccnc3)n2O)c1 | inconclusive: 2.94 µM [inhibitor, partial curve, poor fit] | –
O=C(c1cc2ccccc2oc1=O)N(Cc1ccccc1)C1CCS(=O)(=O)C1 (stereo not drawn) | inactive | –
CCOC(=O)C1C(c2ccc([N+](=O)[O-])cc2)C2C(=O)NN=C2CC1(C)O (stereo not drawn) | inactive | –
O=C(NCc1ccc2c(c1)OCO2)C1CC(=O)N(c2ccc(Cl)cc2)C1 (stereo not drawn) | inactive | –
COc1ccc(/C(O)=C2\C(=O)C(=O)N(CCN3CCOCC3)C2c2ccccc2OC)cc1 (stereo not drawn) | inactive | –
O=C(CSc1nc(=O)n(CCCN2CCOCC2)c2c1CCCC2)Nc1cccc(F)c1 | inconclusive: 7.38 µM [inhibitor, partial curve, poor fit] | –
Cc1ccc(-c2nnn(CC(=O)N(c3cccc(O)c3)C(C(=O)NC(C)(C)C)c3cccs3)n2)o1 (stereo not drawn) | inconclusive: 11.7 µM [inhibitor, single point] | –
COc1cccc(/C=N/NC(=O)COc2cccc3cccnc23)c1O | inactive | –
O=C(NC(=S)Nc1ccc(CN2CCOCC2)cc1)c1cc2ccccc2o1 | – | inactive: -7.27% [at 5.75 µM]
Cc1ccc(C(=O)/C=C2/NC(=O)CS2)cc1 | inactive | –
CCOc1ccccc1/C=C(/NC(=O)c1ccccc1)C(=O)NC(C)c1ccccc1 (stereo not drawn) | active: 10.4 µM | –
Cc1nnc2sc(-c3cccc(F)c3)nn2c1=O | inconclusive: 5.86 µM [inhibitor, partial curve, poor fit] | –
COc1ccccc1-c1nc(NC(C)=O)n[nH]1 | inconclusive: 18.5 µM [inhibitor, single point] | –
Cc1nc2sc(C(c3cccs3)N3CCC4(CC3)OCCO4)c(O)n2n1 (stereo not drawn) | inconclusive: 11.7 µM [inhibitor, single point] | –
CC(C)OC(=O)CC(=O)CSc1nc2c(cc1C#N)CCCC2 | inconclusive: 4.15 µM [inhibitor, partial curve, poor fit] | –
Cc1ccc(CN(C)C(=O)c2ccc(S(=O)(=O)N(C)c3ccccc3)cc2)o1 | inconclusive: 14.7 µM [inhibitor, single point] | –

Structure (SMILES) | Potency | activity change, negative = inhibition
Cc1ccc(NC(=O)CSc2ncnc3ccccc23)cc1S(=O)(=O)N1CCCCCC1 | inconclusive: 13.1 µM [inhibitor, single point] | –
CC(C)(C)OC(=O)NC(CNCc1ccccc1)Cc1ccccc1 (stereo not drawn) | inconclusive: 18.5 µM [inhibitor, single point] | –
O=C(Nc1ccc(Cl)c(C(F)(F)F)c1)C(=O)N1CCCCC1 | inconclusive: 14.7 µM [inhibitor, single point] | –
CCCCCN(C(=O)CCC(=O)OCc1cccc(C)c1)c1c(N)n(CCCC)c(=O)[nH]c1=O | inconclusive: 13.1 µM [inhibitor, single point] | –
CS(=O)(=O)N1CCCC(C(=O)NCCN2CCC(Cc3ccccc3)CC2)C1 (stereo not drawn) | inconclusive: 9.28 µM [inhibitor, partial curve, poor fit] | –
Cc1c(Cl)cccc1NC(=O)[C@@]1(CC(=O)O)CC(/C=C/c2ccccc2)=NO1 | inactive | –
O=C(/C=C/c1ccccc1)NCCSCc1ccccc1Cl | inconclusive: 2.62 µM [inhibitor, full curve] | –
O=C(CNc1ccccc1N1CCCC1=O)Nc1cc(C(F)(F)F)ccc1-n1cncn1 | inactive | –
Cc1noc(C)c1C(=O)OCC(=O)NC1CCCCC1C (stereo not drawn) | inactive | –
Cc1ccc(NNC(=O)c2cc(C(C)(C)C)nn2Cc2ccccc2)cc1 | inconclusive: 2.62 µM [inhibitor, full curve, poor fit] | –
Cc1ccc2[nH]c(=O)c3cc(C(=O)N(C)C4CCCCC4)sc3c2c1 | inconclusive: 14.7 µM [inhibitor, single point] | –
CC(=O)N1N=C(c2cccc([N+](=O)[O-])c2)OC1c1ccc(Cl)cc1Cl (stereo not drawn) | inconclusive: 18.5 µM [inhibitor, single point] | –
Cc1ccc(CCNC(=O)CCSCc2ccc(Cl)cc2)cc1 | inconclusive: 10.4 µM [inhibitor, partial curve] | –
Cc1ccc(C(=O)N(CCc2ccccc2)Cc2ccccc2)cc1S(=O)(=O)N1CCCCC1 | active: 8.28 µM | –
COc1cc2c(cc1OC)CN(C(=O)C1CCN(S(=O)(=O)c3ccccc3F)CC1)CC2 | inconclusive: 7.38 µM [inhibitor, partial curve] | –
Cc1cccc(NC(=O)C2CCN(c3nccc(C)n3)CC2)c1 | inactive | –
N/C(Cc1cccs1)=N\OC(=O)COc1ccccc1 | inconclusive: 14.7 µM [inhibitor, partial curve, poor fit] | –
CC(C)N(C(=S)NCc1ccccc1)c1ccccc1 | inconclusive: 11.7 µM [inhibitor, partial curve, poor fit] | –
O=C(CCCn1c(=O)[nH]c2cc(Cl)ccc2c1=O)NCCCN1CCCC1=O | inactive | –
COc1ccc(-n2c(SCC(=O)Nc3ccc(C)cc3)nc(O)c(Cc3ccccc3)c2=O)cc1 | inconclusive: 10.4 µM [inhibitor, single point] | –
Cc1oc2cc(O)ccc2c(=O)c1-c1nncn1-c1ccccc1 | inconclusive: 13.1 µM [inhibitor, partial curve, poor fit] | –
